Experimental data from patent US8536407B2, “Heat resistant plants and plant tissues comprising a variant adenosine diphosphate glucose pyrophosphorylase small subunit protein and methods of use thereof” (University of Florida Research Foundation, Inc., priority 2008, dated 2013).

System: BT2
Experiment: Dot blot of crude extracts from E. coli cells, monoclonal antibody against BT2
Set-up: species or system maize
Details: E. coli cells expressing the subunit with SH2

Molecule	amount of small subunit protein in crude extracts (dot blot)
BT2-TI: BT2 small subunit with change of amino acid 462 from threonine to isoleucine (protein, zea mays BT2 protein, BT2 small subunit with change of amino acid 462 from threonine to isoleucine) MDMALASKASPPPWNATAAEQPIPKRDKAAANDSTYLNPQAHDSVLGIILGGGAGTRLYPLTKKRAKPAVPLGANYRLIDIPVSNCLNSNISKIYVLTQFNSASLNRHLSRAYGSNIGGYKNEGFVEVLAAQQSPDNPNWFQGTADAVRQYLWLFEEHNVMEFLILAGDHLYRMDYEKFIQAHRETNADITVAALPMDEKRATAFGLMKIDEEGRIIEFAEKPKGEQLKAMMVDTTILGLDDVRAKEMPYIASMGIYVFSKDVMLQLLREQFPEANDFGSEVIPGATSIGKRVQAYLYDGYWEDIGTIAAFYNANLGITKKPIPDFSFYDRFAPIYTQPRHLPPSKVLDADVTDSVIGEGCVIKNCKINHSVVGLRSCISEGAIIEDSLLMGADYYETEADKKLLAEKGGIPIGIGKNSCIRRAIIDKNARIGDNVKILNADNVQEAAMETDGYFIKGGIVIVIKDALLPSGTVI	found in higher amounts in E. coli
MP-TI: MP mosaic small subunit with the amino acid change of TI introduced (protein, zea mays MP-TI protein, MP mosaic small subunit with the amino acid change of TI introduced) MDMALASKASPPPWNATAAEQPIPKRDKAAANDSTYLNPQAHDSVLGIILGGGAGTRLYPLTKKRAKPAVPLGANYRLIDIPVSNCLNSNISKIYVLTQFNSASLNRHLSRAYGSNIGGYKNEGFVEVLAAQQSPDNPNWFQGTADAVRQYLWLFEEHNVMEFLILAGDHLYRMDYEKFIQAHRETNADITVAALPMDEKRATAFGLMKIDEEGRIIEFAEKPQGEQLQAMKVDTTILGLDDKRAKEMPFIASMGIYVISKDVMLNLLRDKFPGANDFGSEVIPGATSLGMRVQAYLYDGYWEDIGTIEAFYNANLGITKKPVPDFSFYDRSAPIYTQPRYLPPSKMLDADVTDSVIGEGCVIKNCKIHHSVVGLRSCISEGAIIEDSLLMGADYYETDADRKLLAAKGSVPIGIGKNCHIKRAIIDKNARIGDNVKIINKDNVQEAARETDGYFIKSGIVIVIKDALIPSGIII	greater amounts of the MP-TI protein relative to BT2
